From the supplement of paper PMC4604168 (melanoma cell lines)
The other results are listed elsewhere or left out. Single values are uncertain, as repeats are few or missing.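 Cells were imaged in 1,536-well plates, and nuclei stained with an antibody against cleaved PARP were counted against all DNA-stained nuclei to give the apoptosis fraction. Screening doses were chosen to leave most cells alive, and resting and induced cleaved-PARP levels differ strongly between cell lines.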

Legend:
Assay in all cases: cleaved PARP positive nuclei fraction relative to DMSO control; melanoma cells; higher = more apoptosis
Conditions in all cases: library dose: low library concentration; 72 h
WM115 = tested on: WM115
WM1716 = tested on: WM1716
WM1745 = tested on: WM1745
WM3526 = tested on: WM3526
WM3619 = tested on: WM3619
WM451Lu = tested on: WM451Lu

SMILES	cleaved PARP positive nuclei fraction (WM115)	cleaved PARP positive nuclei fraction (WM1716)	cleaved PARP positive nuclei fraction (WM1745)	cleaved PARP positive nuclei fraction (WM3526)	cleaved PARP positive nuclei fraction (WM3619)	cleaved PARP positive nuclei fraction (WM451Lu)
NC(=O)c1ccc(N(C(N)=O)c2c(F)cccc2F)nc1-c1ccc(F)cc1F + O=C(O)[C@@H]1[O][Sb](=[O])([O][Sb]2(=[O])[O][C@H]([C@H](O)CO)[C@H](O)[C@H](C(=O)O)[O]2)[O][C@H]([C@H](O)CO)[C@@H]1O [stibogluconate] (first compound 0.4 µM, partner dose 2 µM)	128%	77%	101%	154%	91.6%	79.4%
Cn1cnc2c(F)c(Nc3ccc(Br)cc3Cl)c(C(=O)NOCCO)cc21 [selumetinib] + CCN(CC)CCCCNc1ncc2cc(-c3cc(OC)cc(OC)c3)c(NC(=O)NC(C)(C)C)nc2n1 [PD173074] (first compound 0.015 µM, partner dose 0.1 µM)	164%	158%	92.7%	95.9%	101%	69.4%
CC1(C)CCC(c2ccc(Cl)cc2)=C(CN2CCN(c3ccc(C(=O)NS(=O)(=O)c4ccc(N[C@H](CCN5CCOCC5)CSc5ccccc5)c(S(=O)(=O)C(F)(F)F)c4)cc3)CC2)C1 + COc1ccc(COc2ccc(Cc3cnc(N)nc3N)cc2OC)cc1 [GW2580] (first compound 0.4 µM, partner dose 1 µM)	131%	140%	501%	37.2%	116%	105%
CN(c1ncccc1CNc1nc(Nc2ccc3c(c2)CC(=O)N3)ncc1C(F)(F)F)S(C)(=O)=O + Cc1cc(N2CCOCC2)cc2[nH]c(-c3c(NC[C@@H](O)c4cccc(Cl)c4)cc[nH]c3=O)nc12 [BMS536924] (first compound 0.08 µM, partner dose 0.2 µM)	111%	87.3%	141%	64.2%	101%	63.2%
CC1(C)CCC(c2ccc(Cl)cc2)=C(CN2CCN(c3ccc(C(=O)NS(=O)(=O)c4ccc(N[C@H](CCN5CCOCC5)CSc5ccccc5)c(S(=O)(=O)C(F)(F)F)c4)cc3)CC2)C1 + O=C(O)c1ccc2c(c1)nc(Nc1cccc(Cl)c1)c1ccncc12 [CX4945] (first compound 0.4 µM, partner dose 0.4 µM)	711%	898%	1130%	60.7%	114%	273%
C[C@@H](N)c1ccc(C(=O)Nc2ccnc3[nH]ccc23)cc1 + CCc1ccc(CCOc2ccc(CC3SC(=O)NC3=O)cc2)nc1 [pioglitazone] (first compound 0.4 µM, partner dose 2 µM)	74.6%	267%	108%	66%	120%	79.7%
Cn1sc(=O)n(Cc2ccccc2)c1=O + CS(=O)(=O)c1ccc(C(=O)Nc2ccc(Cl)c(-c3ccccn3)c2)c(Cl)c1 [vismodegib] (first compound 0.4 µM, partner dose 1 µM)	156%	107%	99.2%	37.4%	85.9%	288%
CCCCCCCCc1ccc(CCC(N)(CO)CO)cc1 [fingolimod] + Clc1ccc(Nc2nnc(Cc3ccncc3)c3ccccc23)cc1 [vatalanib] (first compound 2 µM, partner dose 2 µM)	95.3%	40.8%	127%	47.2%	107%	62.8%
NC(=O)c1ccc(N(C(N)=O)c2c(F)cccc2F)nc1-c1ccc(F)cc1F + C=CCn1c(=O)c2cnc(Nc3ccc(N4CCN(C)CC4)cc3)nc2n1-c1cccc(C(C)(C)O)n1 [MK1775] (first compound 0.4 µM, partner dose 0.02 µM)	153%	158%	117%	63.2%	166%	484%
C[C@@H](N)c1ccc(C(=O)Nc2ccnc3[nH]ccc23)cc1 + O=S(=O)(c1ccccc1)N(CC(F)(F)F)c1ccc(C(O)(C(F)(F)F)C(F)(F)F)cc1 [T0901317] (first compound 0.4 µM, partner dose 1.4 µM)	326%	155%	125%	77%	93.6%	61.9%
COc1ccc(C2=N[C@@H](c3ccc(Cl)cc3)[C@@H](c3ccc(Cl)cc3)N2C(=O)N2CCNC(=O)C2)c(OC(C)C)c1 [Nutlin-3] + Oc1nc(-c2ccc(C(F)(F)F)cc2)nc2c1CSCC2 [XAV939] (first compound 0.1 µM, partner dose 2 µM)	247%	466%	99.6%	94.5%	144%	131%

3 entries from above in a different format:
SMILES | cleaved PARP positive nuclei fraction (WM115) | cleaved PARP positive nuclei fraction (WM1716) | cleaved PARP positive nuclei fraction (WM1745) | cleaved PARP positive nuclei fraction (WM3526) | cleaved PARP positive nuclei fraction (WM3619) | cleaved PARP positive nuclei fraction (WM451Lu)
CCCCCCCCc1ccc(CCC(N)(CO)CO)cc1 [fingolimod] + Clc1ccc(Nc2nnc(Cc3ccncc3)c3ccccc23)cc1 [vatalanib] (first compound 2 µM, partner dose 2 µM) | 95.3% | 40.8% | 127% | 47.2% | 107% | 62.8%
NC(=O)c1ccc(N(C(N)=O)c2c(F)cccc2F)nc1-c1ccc(F)cc1F + C=CCn1c(=O)c2cnc(Nc3ccc(N4CCN(C)CC4)cc3)nc2n1-c1cccc(C(C)(C)O)n1 [MK1775] (first compound 0.4 µM, partner dose 0.02 µM) | 153% | 158% | 117% | 63.2% | 166% | 484%
C[C@@H](N)c1ccc(C(=O)Nc2ccnc3[nH]ccc23)cc1 + O=S(=O)(c1ccccc1)N(CC(F)(F)F)c1ccc(C(O)(C(F)(F)F)C(F)(F)F)cc1 [T0901317] (first compound 0.4 µM, partner dose 1.4 µM) | 326% | 155% | 125% | 77% | 93.6% | 61.9%
